From patent US20150368329A1 (ONCOMED PHARMACEUTICALS, published 2015)
Positions count from the first letter of the chain named. Results are given in words; binding and its absence hold for the method and conditions named. Some entries that bind do so weakly or less than the wild type. Blank lines part the entries; values can stand above or below the binder they belong to.

Sequences of proteins named here, by UniProt entry; tags and fusion partners are left off. A change or cut given only in a name is not applied to a line headed by its entry. A line that says so, or that is headed by a name, gives the form on record, which may keep a tag or linker. Residues count along the entry.
UniProt Q9NR61, residues 27-522: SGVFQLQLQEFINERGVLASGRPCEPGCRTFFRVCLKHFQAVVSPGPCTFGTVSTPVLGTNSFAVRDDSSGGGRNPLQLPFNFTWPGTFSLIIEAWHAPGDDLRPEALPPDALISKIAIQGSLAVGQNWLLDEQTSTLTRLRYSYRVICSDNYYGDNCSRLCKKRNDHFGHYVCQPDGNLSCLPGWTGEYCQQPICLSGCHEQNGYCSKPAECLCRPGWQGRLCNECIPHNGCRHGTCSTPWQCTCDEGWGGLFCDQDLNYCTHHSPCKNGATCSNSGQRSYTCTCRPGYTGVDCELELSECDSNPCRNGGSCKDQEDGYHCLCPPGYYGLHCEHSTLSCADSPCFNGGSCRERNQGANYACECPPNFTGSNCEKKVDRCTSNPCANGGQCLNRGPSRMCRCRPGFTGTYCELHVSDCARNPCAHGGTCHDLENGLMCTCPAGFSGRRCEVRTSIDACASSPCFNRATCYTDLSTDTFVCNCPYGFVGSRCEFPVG
VEGF (ATGEN, South Korea) coated on ELISA plates (P15692, form named): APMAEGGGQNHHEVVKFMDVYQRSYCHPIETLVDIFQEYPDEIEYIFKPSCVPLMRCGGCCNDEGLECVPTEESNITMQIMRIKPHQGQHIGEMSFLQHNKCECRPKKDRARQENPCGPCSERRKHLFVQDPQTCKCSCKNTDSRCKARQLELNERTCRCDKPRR

How the values were obtained:
biotin-DLL4-hFc [1] = biological target: T1, biotin-DLL4-hFc (UniProt Q9NR61 27-522, limits assumed, biotinylated); assay: bridging ELISA: antibody pre-incubated with 2 ug/ml biotin-DLL4-hFc, captured on a VEGF-coated plate, detected with streptavidin-HRP, absorbance 450-650 nm
T1 construct: not shown: human Fc ('hFc')

[2] = biological target: VEGF (ATGEN, South Korea) coated on ELISA plates (UniProt P15692); assay: as above
biotin-DLL4-hFc [3] = biological target: T1, biotin-DLL4-hFc; assay: bridging ELISA; VEGF-coated plate, biotin-DLL4-hFc, streptavidin-HRP; summary of Example 5
[4] = biological target: VEGF (ATGEN, South Korea) coated on ELISA plates (UniProt P15692); assay: as above

B1: anti-VEGF/anti-DLL4 bispecific antibody 219R45-MB-21M18 (bispecific antibody, human IgG2)
heavy 1: QVQLVQSGAEVKKPGASVKVSCKASGYTFTNYWMHWVRQAPGQGLEWMGDINPSNGRTSYKEKFKRRVTLSVDKSSSTAYMELSSLRSEDTAVYFCTIHYDDKYYPLMDYWGQGTLVTVSSASTKGPSVFPLAPCSRSTSESTAALGCLVKDYFPEPVTVSWNSGALTSGVHTFPAVLQSSGLYSLSSVVTVPSSNFGTQTYTCNVDHKPSNTKVDKTVERKCCVECPPCPAPPVAGPSVFLFPPKPKDTLMISRTPEVTCVVVDVSHEDPEVQFNWYVDGVEVHNAKTKPREEQFNSTFRVVSVLTVVHQDWLNGKEYKCKVSNKGLPAPIEKTISKTKGQPREPQVYTLPPSREKMTKNQVSLTCLVKGFYPSDIAVEWESNGQPENNYKTTPPMLKSDGSFFLYSKLTVDKSRWQQGNVFSCSVMHEALHNHYTQKSLSLSPGK
heavy 2: QVQLVQSGAEVKKPGASVKISCKASGYSFTAYYIHWVKQAPGQGLEWIGYISSYNGATNYNQKFKGRVTFTTDTSTSTAYMELRSLRSDDTAVYYCARDYDYDVGMDYWGQGTLVTVSSASTKGPSVFPLAPCSRSTSESTAALGCLVKDYFPEPVTVSWNSGALTSGVHTFPAVLQSSGLYSLSSVVTVPSSNFGTQTYTCNVDHKPSNTKVDKTVERKCCVECPPCPAPPVAGPSVFLFPPKPKDTLMISRTPEVTCVVVDVSHEDPEVQFNWYVDGVEVHNAKTKPREEQFNSTFRVVSVLTVVHQDWLNGKEYKCKVSNKGLPAPIEKTISKTKGQPREPQVYTLPPSREEMTKNQVSLTCLVEGFYPSDIAVEWESNGQPENNYKTTPPMLDSDGSFFLYSELTVDKSRWQQGNVFSCSVMHEALHNHYTQKSLSLSPGK
light: DIVMTQSPDSLAVSLGERATISCRASESVDNYGISFMKWFQQKPGQPPKLLIYAASNQGSGVPDRFSGSGSGTDFTLTISSLQAEDVAVYYCQQSKEVPWTFGGGTKVEIKRTVAAPSVIFPPSDEQLKSGTASVVCLLNNFYPREAKVQWKVDNALQSGNSQESVTEQDSKDSTYSLSSTLTLSKADYEKHKVYACEVTHQGLSSPVTKSFNRGEC
- binding (biotin-DLL4-hFc [1]): binds
- binding [2]: binds
- binding (biotin-DLL4-hFc [3]): binds
- binding [4]: binds

B4: anti-VEGF/anti-DLL4 bispecific antibody 219R45-MB-21R75 (bispecific antibody, human IgG2)
heavy 1: B1 heavy 1
heavy 2: B1 heavy 2 with S52A, S53G, N55K, G56D
light: B1 light
notes: Monovalent/bispecific IgG2 heterodimer
- binding (biotin-DLL4-hFc [1]): binds
- binding [2]: binds
- binding (biotin-DLL4-hFc [3]): binds
- binding [4]: binds

Now from value to binder:

- binding (biotin-DLL4-hFc [1]): binds
- binding [2]: binds
- binding (biotin-DLL4-hFc [3]): binds
- binding [4]: binds
B2: anti-VEGF/anti-DLL4 bispecific antibody 219R45-MB-21R83 (bispecific antibody, human IgG2)
heavy 1: B1 heavy 1
heavy 2: B1 heavy 2 with S53N, G56R
light: B1 light

- binding (biotin-DLL4-hFc [1]): binds
- binding [2]: binds
- binding (biotin-DLL4-hFc [3]): binds
- binding [4]: binds
B3: anti-VEGF/anti-DLL4 bispecific antibody 219R45-MB-21R79 (bispecific antibody, human IgG2)
heavy 1: B1 heavy 1
heavy 2: B1 heavy 2 with S52A, S53N, G56R
light: B1 light
